A short description of this assay: qHTS Assay for Lipid Storage Modulators in Drosophila S3 Cells.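 On cell number change: cells counted by Cell Tracker Red CMTPX staining in the red channel.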 The following applies: BODIPY lipid droplet fluorescence, 18-24 h; for cell number change: measured here: cell count max response, cells fed with added oleic acid. The procedure, abridged:
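Drosophila S3 cells loaded with oleic acid (400 uM, as added) and compounds at several concentrations; lipid droplets imaged by 488-nm laser-scanning cytometry, 500–530 nm intensity and object ratio to cell channel. Percent activity normalized to 20 uM Triacsin C.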

Where [1] appears, read: measured here: lipid fluorescence (Fed channel) AC50, cells fed with added oleic acid.
The mark [2] stands for this setting: measured here: cell number channel AC50, cells fed with added oleic acid.

The structures appear in SMILES notation. This is one part of the list. Shown are side measurements of this screen, not its main read-out; they come without a call. Compounds called inactive in the main read-out are mostly missing here. Potencies come from curve fits of mixed quality, noted in brackets.

The term AC50 denotes the midpoint of the concentration-response curve, whichever way the signal moves. A high value points to activity only at high concentration. As for `O=C(COC(=O)c1n[nH]c2ccccc12)Nc1ccc(S(=O)(=O)N2CCCC2)cc1`, the cell number change is -31.6%. For the same molecule, the AC50 under setting [1] is 4.61 µM [falling, partial curve].
As to `CCOc1ccc(S(=O)(=O)NN)cc1`, the cell number change is 7.28%. Under setting [2], the AC50 is 4.11 µM [falling, single point]. In addition, the AC50 under setting [1] was 14.6 µM [falling, partial curve].
Consider `C=CCCOc1ccccc1C(N)=O`, for which the cell number change was found to be 3.76%. Besides, the AC50 under setting [1] is 4.11 µM [falling, single point].
For the molecule `CCOc1ccccc1NC(=O)c1oc2ccccc2c1NC(=O)C1CCCO1` (stereo not drawn), the cell number change amounted to 0.797%. In addition, the AC50 under setting [2] was 0.731 µM [rising, full curve, poor fit]. Further, under setting [1], the AC50 is 0.0116 µM [rising, full curve, poor fit].
`CC(OC(=O)c1ccc2ccccc2c1)C(=O)N(C)Cc1ccccc1` (stereo not drawn): the cell number change amounted to 25.6%. Also, the AC50 under setting [1] was 29.1 µM [rising, single point].
Take `CCOc1ccc(S(=O)(=O)NCCCN2CCOCC2)c2ccccc12`: under setting [1], the concentration at half-maximal activity (AC50) is 0.116 µM [falling, full curve, poor fit].
`Fc1ccc(OCc2nn3cnnc3s2)cc1`: the cell number change was -2.81%.
`O=C(CN1CCSCC1)N/N=C/c1cccc(Cl)c1`: the cell number change was 18.9%. In addition, the AC50 under setting [1] was 0.00461 µM [falling, full curve, poor fit].
For `Cc1nnc(SCC2=C(C(=O)O)N3C(=O)C(NC(=O)Cc4ccccc4)C3SC2)s1` (stereo not drawn), the cell number change was found to be 0.423%.
With `CC(=O)Nc1ccc(S(=O)(=O)N2CCC(C(=O)NCCC(=O)Nc3nccs3)CC2)cc1`, the cell number change was determined as 6.87%. For the same molecule, under setting [1], the AC50 was 29.1 µM [rising, partial curve].
For the molecule `CCN(CC)S(=O)(=O)c1ccc2c(c1)nc(SCC(N)=O)n2-c1ccc(OC)cc1`, the cell number change came out at 25.1%. In addition, the AC50 under setting [1] is 29.1 µM [rising, single point].
Regarding `COc1cccc(C(=O)NCCCn2ccnc2)c1`, the cell number change was -45.3%.
In the case of `CCN(CC)c1ccc(/C=C(/C#N)C(=O)NC(C)C)o1`, the cell number change was -4.94%.
As to `O=C(/C=C/c1ccc2c(c1)OCO2)c1ccc[nH]1`, the cell number change was -1.22%. Also, the AC50 under setting [2] was 6.51 µM [rising, single point]. Further, the AC50 under setting [1] was 16.4 µM [rising, partial curve].
For `CCONC(=NC)c1nonc1N`, the cell number change was -47.3%. Besides, the AC50 under setting [2] is 4.11 µM [falling, full curve, poor fit]. The AC50 under setting [1] was 6.51 µM [falling, single point].
As for `Cc1cccc([N+](=O)[O-])c1NC(=O)CN(Cc1ccccc1)Cc1ccccc1`, the cell number change amounted to 4.72%.
For the molecule `Cc1ccc(SCCC(=O)Nc2ccccc2C(=O)N2CCOCC2)cc1`, the cell number change amounted to 6.46%. For the same molecule, under setting [1], the AC50 was 0.651 µM [falling, partial curve, poor fit].
Take `CCC(=O)Nc1c(C)nn(C(=O)CC)c1C`: the cell number change was -42.4%. Besides, the AC50 under setting [2] was 3.66 µM [falling, full curve]. For the same molecule, under setting [1], the AC50 is 14.6 µM [falling, partial curve].
As to `NC(=O)Nc1cccc2ccccc12`, the cell number change was found to be 7.61%. Under setting [2], the AC50 was 0.461 µM [falling, single point]. Also, under setting [1], the AC50 is 0.461 µM [falling, single point].
For the molecule `Cc1c(OC(C)C(=O)NCCCN2CCCC2=O)ccc2c3c(c(=O)oc12)CCCC3` (stereo not drawn), the cell number change was -24.8%. Also, the AC50 under setting [1] is 29.1 µM [falling, single point].
For the molecule `Cc1ccc(CNS(=O)(=O)NCc2ccccc2F)cc1`, the cell number change is 107%. Besides, under setting [2], the AC50 was 8.2 µM [rising, partial curve].
Regarding `c1nc2nc3c(c(N4CCOCC4)n2n1)CCCC3`, the cell number change is 43.1%. Besides, the AC50 under setting [2] was 20.6 µM [rising, single point].
Consider `Cc1nn(C)c(C)c1NS(=O)(=O)c1ccc(OC(F)(F)F)cc1`, for which the cell number change is -97.5%.
On to `CCOc1ccc(NS(=O)(=O)c2ccc3[nH]c(=O)cc(C(=O)O)c3c2)cc1`, for which the cell number change was -30.2%. Besides, the AC50 under setting [2] was 29.1 µM [falling, single point]. Also, under setting [1], the AC50 is 29.1 µM [falling, single point].
For the molecule `CC(OC(=O)CNC(=O)c1sc2ccccc2c1Cl)C(=O)NC1(C#N)CCCCC1` (stereo not drawn), the cell number change is -6.33%. The AC50 under setting [1] is 20.6 µM [falling, single point].
Turning to `Cc1ccc(NC(=O)C2CCN(S(=O)(=O)c3cccc4nonc34)CC2)cc1`, the cell number change came to 337%. Also, the concentration at half-maximal activity (AC50) under setting [2] is 29.1 µM [rising, single point].
As to `Cc1ccc(S(=O)(=O)N2CC(C(=O)O)=CC[C@H]2c2ccc3c(c2)OCO3)cc1`, the cell number change was -16.7%. Moreover, the AC50 under setting [1] is 0.411 µM [rising, partial curve, poor fit].
Consider `C/C(=N\Nc1cc(C)nc(NCc2ccccc2)n1)c1ccc([N+](=O)[O-])cc1`, for which the cell number change is 36.4%. Further, the AC50 under setting [2] was 36.6 µM [rising, single point].
Consider `COc1cccc(CNC(=O)CN2C(=O)NC(Cc3ccccc3)(c3ccccc3)C2=O)c1` (stereo not drawn), for which the cell number change is -59.1%. Moreover, the AC50 under setting [2] was 13 µM [falling, partial curve]. The AC50 under setting [1] was 9.2 µM [falling, partial curve].
For the molecule `O=C(OCC(=O)N1CCCC1)c1c[nH]c2ccccc12`, the cell number change was -26.5%. For the same molecule, the AC50 under setting [1] was 32.6 µM [falling, single point].
For the molecule `O=C(CSc1nnc2ccc3ccccc3n12)c1ccc(F)cc1`, the cell number change amounted to 13.6%. The AC50 under setting [1] is 32.6 µM [falling, single point].
With `CC(=O)Nc1ccc(S(=O)(=O)N2CCN=C2SCc2cccc(C)c2)cc1`, the cell number change was -32.2%. The AC50 under setting [2] was 32.6 µM [falling, single point].
Turning to `COc1ccc(Nc2nnc(SCC3CCCO3)s2)cc1` (stereo not drawn), under setting [1], the AC50 is 6.51 µM [falling, single point].
As for `Cn1c(CN2CCOCC2)nnc1SCC(=O)Nc1ccc([N+](=O)[O-])cc1O`, the cell number change was -5.41%. For the same molecule, the AC50 under setting [1] is 29.1 µM [rising, single point].
On to `CCOc1ccc(Br)cc1S(=O)(=O)Nc1ccc(NC(=O)c2ccccc2C)cc1`, for which the cell number change was 30.1%. For the same molecule, the AC50 under setting [2] is 6.51 µM [falling, partial curve, poor fit]. Moreover, under setting [1], the AC50 is 0.92 µM [rising, partial curve, poor fit].
Take `O=C(N/N=C/c1ccc(OCc2ccc(F)cc2)cc1)c1ccccc1`: the cell number change was -40.3%. In addition, the AC50 under setting [1] was 29.1 µM [falling, single point].
For `CN(C)CCCN=Cc1c(O)n(Cc2ccccc2)c(=O)c2ccccc12`, the cell number change came to 52.5%. The AC50 under setting [2] was 14.6 µM [rising, partial curve, poor fit]. Under setting [1], the AC50 was 1.64 µM [rising, partial curve].
Regarding `CCC(=O)N1CCc2cc(Br)cc(S(=O)(=O)CC(=O)OC)c21`, the cell number change was determined as 10.7%.
With `COc1ccc2c(C)nc(N/C(N)=N/S(=O)(=O)c3ccc(C)cc3)nc2c1`, the cell number change is -67.8%. In addition, the AC50 under setting [2] was 29.1 µM [falling, single point]. Also, the AC50 under setting [1] is 29.1 µM [falling, partial curve].
Consider `COC(=O)c1ccccc1NC(=O)CSc1nncn1-c1ccccn1`, for which the cell number change turned out to be 15.2%. Further, under setting [1], the AC50 is 2.91 µM [falling, single point].
For `O=C(C(=O)N1CCN(c2ccc([N+](=O)[O-])cc2)CC1)c1cn(CC(=O)N2CCOCC2)c2ccccc12`, the cell number change was 33.1%. Under setting [2], the AC50 was 32.6 µM [rising, single point]. Moreover, the AC50 under setting [1] is 6.51 µM [rising, partial curve, poor fit].
For `COC(=O)c1c(C)[nH]c(C)c1-c1ccccc1Cl`, the cell number change is -22.3%.
On to `CC(COC(=O)c1ccccc1)(COC(=O)c1ccccc1)/[N+]([O-])=C/c1ccccc1`, for which the cell number change is -31.2%. Also, under setting [2], the AC50 is 0.116 µM [falling, full curve]. For the same molecule, the AC50 under setting [1] was 18.4 µM [falling, partial curve, poor fit].
Regarding `Cc1ccccc1C(=O)Nc1ccc2c(c1)CCCN2C(=O)c1cccs1`, the cell number change worked out at 1.42%. Moreover, the AC50 under setting [1] was 29.1 µM [falling, single point].
`OCC[C@H]1C[C@@H](O)[C@H](O)[C@]2(CCc3ccccc3O2)O1`: the cell number change is -24.6%. For the same molecule, under setting [1], the AC50 was 1.46 µM [rising, partial curve].
`COc1cccc(C(=O)NCCSc2ccc(Br)cc2)c1`: the AC50 under setting [1] is 0.00461 µM [falling, full curve, poor fit].
As for `Cc1ccc(S(=O)(=O)NCC(=O)NCC(=O)NC(C)c2ccccc2Br)cc1C` (stereo not drawn), the cell number change came to 11.5%. The AC50 under setting [1] is 29.1 µM [rising, single point].
Consider `CC(=O)N1c2ccc(S(=O)(=O)N3CCC(C(=O)Nc4cccc(C)n4)CC3)cc2CC1C` (stereo not drawn), for which the cell number change was 10.1%. Under setting [1], the AC50 was 0.82 µM [falling, full curve, poor fit].
`O=C(O)COc1ccc(Nc2ccccc2)cc1`: the cell number change stood at 13.3%.
For `O=C(O)c1cc(-c2ccc(Cl)cc2)n[nH]1`, the AC50 under setting [2] is 2.31 µM [rising, partial curve, poor fit].
For `COc1ccc(NC(=O)N2CCCC2C(=O)Nc2cccc(C)c2C)cc1` (stereo not drawn), the cell number change was found to be 17.5%. Further, the AC50 under setting [1] was 6.51 µM [falling, single point].
As to `CC1CCc2c(C(=O)OCC(=O)Nc3cccc(S(=O)(=O)N4CCCCCC4)c3)csc2C1` (stereo not drawn), the cell number change was -3.01%. Besides, the concentration at half-maximal activity (AC50) under setting [2] was 6.51 µM [falling, single point]. Moreover, the AC50 under setting [1] was 29.1 µM [rising, single point].
`O=C(CN1C(=O)COc2ccc(S(=O)(=O)N3CCCC3)cc21)NCc1ccccn1`: the cell number change was -16.9%. Also, the AC50 under setting [1] is 3.26 µM [falling, full curve].
As for `Cc1cc(=O)oc2cc(OCC(=O)c3ccc4c(c3)NC(=O)CO4)ccc12`, the cell number change was -9.6%.
Consider `COc1ccccc1CN1CCCCC1C(=O)O` (stereo not drawn), for which the AC50 under setting [1] was 16.4 µM [falling, partial curve].
On to `CCCn1c(SCC(=O)N2CCN(c3ccccc3)CC2)nc2ccccc2c1=O`, for which the cell number change was found to be 222%. In addition, the AC50 under setting [2] is 5.17 µM [rising, partial curve].
As to `Cc1ccc(Oc2ccc(Cl)cc2NC(=O)c2cnccn2)cc1`, the cell number change worked out at 75.5%. Moreover, the AC50 under setting [2] was 29.1 µM [rising, single point].
Regarding `O=C(Nc1nc(-c2ccccc2)cs1)c1cccc(S(=O)(=O)N2CCN(Cc3ccccc3)CC2)c1`, the cell number change amounted to 264%. Further, under setting [2], the AC50 is 0.00517 µM [rising, full curve, poor fit]. For the same molecule, the AC50 under setting [1] is 0.58 µM [rising, single point].
`Cc1ccc(CN2C(=O)C(C)Nc3ncnc(N4CCN(c5ccccn5)CC4)c32)cc1` (stereo not drawn): the cell number change turned out to be 19.7%. Moreover, the AC50 under setting [1] is 32.6 µM [rising, single point].

(Values after PubChem BioAssay AID2685 (National Center for Advancing Translational Sciences (NCATS), 2010).)
